PubChem BioAssay AID652243, Drosophila RNAi Screening Center – 2013

Aim: 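Knock-downs that decrease or increase androgen receptor reporter signal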 (primary screen)
System: Drosophila S2R+ cells
Reagents: long dsRNA against Drosophila genes
Timing: 72 h (48 h, then 24 h hormone)
Treatment: synthetic androgen R1881 at 10 nM for 24 h
Detection: 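Firefly light from an androgen-responsive reporter and Renilla control light per well, raw and unnormalised, for each of two replicates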
Scale: firefly reporter light: higher = more light from androgen-responsive reporter; Renilla control light: higher = more constitutive control signal (cell number, transfection)
Call rule: 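Hit when the log firefly-to-Renilla ratio dropped or increased by a fixed fold versus the mean of GFP or LacZ controls across duplicate plates; lowering cut given as 1.5 and as 3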
Meaning of the calls: active = hit: reporter lowered or raised; inactive = no hit
In all, the deposit lists about 24,000 reagents; shown is a random part of those that have a named target and a result. In the full data, 246 (1%) were called active. 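Plates not normalised; calls are printed but the firefly/Renilla ratio behind them is not deposited; fold cut for lowering reported inconsistently.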 Raw values are not corrected between plates. Names joined by + are all predicted targets of the reagent. The record does not give: the amount of reagent.

gene knocked down | DRSC id | firefly reporter light, replicate 1 | firefly reporter light, replicate 2 | Renilla control light, replicate 1 | Renilla control light, replicate 2 | Outcome
CG15614 (GeneID 36899) | DRSC06567 | 83269 | 70687 | 1.03e6 | 1.03e6 | inactive
Gr10a (GeneID 117501) | DRSC18897 | 1.28e6 | 4.33e5 | 2.01e6 | 7.13e5 | inactive
Gr10a (GeneID 117501) | DRSC22792 | 7.92e5 | 1.37e6 | 1.25e6 | 1.61e6 | inactive
Gr10a (GeneID 117501) | DRSC26071 | 4.27e5 | 3.09e5 | 6.17e5 | 5.25e5 | inactive
Efhc1.2 (GeneID 37284) | DRSC06027 | 8.23e5 | 3.52e5 | 1.25e6 | 6.37e5 | inactive
Alp10 (GeneID 38632) | DRSC09749 | 1.61e5 | 81910 | 1.99e6 | 1.34e6 | inactive
Alp10 (GeneID 38632) | DRSC29230 | 5.17e5 | 4.63e5 | 1.41e6 | 1.29e6 | inactive
Taf8 (GeneID 32792) | DRSC20363 | 2.64e5 | 2.56e5 | 2.25e6 | 2.11e6 | inactive
BTBD9 (GeneID 32000) | DRSC18148 | 5.35e5 | 3.67e5 | 4.47e6 | 3.02e6 | inactive
BTBD9 (GeneID 32000) | DRSC22371 | 4.74e5 | 6.16e5 | 3.82e5 | 3.55e5 | inactive
Mulk (GeneID 326168) | DRSC02658 | 1.24e6 | 6.52e5 | 1.52e6 | 1.40e6 | inactive
Mulk (GeneID 326168) | DRSC39277 | – | – | – | – | inactive
Mulk (GeneID 326168) | DRSC39290 | – | – | – | – | inactive
CG3630 (GeneID 31189) | DRSC18499 | 63906 | 70824 | 5.76e5 | 4.88e5 | inactive
CG3630 (GeneID 31189) | DRSC28903 | 3.69e5 | 3.56e5 | 9.80e5 | 1.20e6 | inactive
CG13613 (GeneID 42910) | DRSC14616 | 1.47e5 | 1.99e5 | 2.07e6 | 2.00e6 | inactive
CG17931 + CG42446 | DRSC15293 | 2.36e5 | 1.89e5 | 3.00e6 | 3.04e6 | inactive
CG18754 (GeneID 59145) | DRSC15387 | 1.26e5 | 1.78e5 | 1.90e6 | 1.86e6 | inactive
CG32320 (GeneID 317977) | DRSC21514 | 7.33e5 | 5.87e5 | 2.78e6 | 2.26e6 | inactive
CG32320 (GeneID 317977) | DRSC28106 | 5.64e5 | 6.00e5 | 1.59e6 | 1.84e6 | inactive
CG13937 (GeneID 38249) | DRSC08406 | 3.88e5 | 2.91e5 | 2.46e6 | 2.42e6 | inactive
Rh5 (GeneID 34615) | DRSC03412 | 1.12e6 | 5.16e5 | 1.38e6 | 1.07e6 | inactive
Rh5 (GeneID 34615) | DRSC25429 | 7.41e5 | 3.45e5 | 2.29e6 | 7.22e5 | inactive
sro (GeneID 43512) | DRSC14469 | 1.15e5 | 1.59e5 | 1.63e6 | 2.37e6 | inactive
sro (GeneID 43512) | DRSC27358 | 5.02e5 | 6.18e5 | 9.34e5 | 9.53e5 | inactive
REPTOR-BP (GeneID 34371) | DRSC02683 | 1.70e5 | 1.28e5 | 1.55e6 | 1.24e6 | inactive
CG14420 (GeneID 31284) | DRSC17917 | 4.57e5 | 3.22e5 | 2.59e6 | 2.71e6 | inactive
CG14420 (GeneID 31284) | DRSC25167 | 8.11e5 | 7.32e5 | 9.33e5 | 9.95e5 | inactive
Drip (GeneID 36236) | DRSC07405 | 3.09e5 | 2.48e5 | 1.98e6 | 1.93e6 | inactive
CG18273 (GeneID 30991) | DRSC18150 | 3.68e5 | 3.12e5 | 3.47e6 | 3.04e6 | inactive
CG18273 (GeneID 30991) | DRSC18505 | 6.26e5 | 6.50e5 | 1.77e6 | 1.44e6 | inactive
CG32987 (GeneID 318273) | DRSC22373 | 1.10e6 | 1.08e6 | 1.74e6 | 1.76e6 | inactive
CG32987 (GeneID 318273) | DRSC28687 | 8.97e5 | 5.90e5 | 1.83e6 | 1.54e6 | inactive
CG7298 (GeneID 40210) | DRSC10802 | 28238 | 26707 | 3.23e5 | 3.06e5 | inactive
CG17732 (GeneID 40182) | DRSC10283 | 2.56e5 | 2.51e5 | 2.47e6 | 2.39e6 | inactive
RpL37A (GeneID 44783) | DRSC02899 | 62547 | 62214 | 6.61e5 | 4.69e5 | inactive
RpL37A (GeneID 44783) | DRSC25051 | 3.60e5 | 2.28e5 | 9.16e5 | 3.60e5 | inactive
Tmx3 (GeneID 39775) | DRSC10471 | 38544 | 46558 | 4.23e5 | 3.51e5 | inactive
fit (GeneID 42578) | DRSC15280 | 3.14e5 | 2.84e5 | 3.07e6 | 3.50e6 | inactive
CG4836 (GeneID 42387) | DRSC15659 | 79409 | 74528 | 8.87e5 | 7.18e5 | inactive
CG4836 (GeneID 42387) | DRSC22066 | 5.85e5 | 6.04e5 | 2.10e6 | 1.38e6 | inactive
CG4836 (GeneID 42387) | DRSC24789 | 7.31e5 | 8.04e5 | 6.41e5 | 7.15e5 | inactive

A run of entries of the results above, for reference:
gene knocked down | DRSC id | firefly reporter light, replicate 1 | firefly reporter light, replicate 2 | Renilla control light, replicate 1 | Renilla control light, replicate 2 | Outcome
CG13613 (GeneID 42910) | DRSC14616 | 1.47e5 | 1.99e5 | 2.07e6 | 2.00e6 | inactive
CG17931 + CG42446 | DRSC15293 | 2.36e5 | 1.89e5 | 3.00e6 | 3.04e6 | inactive
CG18754 (GeneID 59145) | DRSC15387 | 1.26e5 | 1.78e5 | 1.90e6 | 1.86e6 | inactive
CG32320 (GeneID 317977) | DRSC21514 | 7.33e5 | 5.87e5 | 2.78e6 | 2.26e6 | inactive
CG32320 (GeneID 317977) | DRSC28106 | 5.64e5 | 6.00e5 | 1.59e6 | 1.84e6 | inactive
CG13937 (GeneID 38249) | DRSC08406 | 3.88e5 | 2.91e5 | 2.46e6 | 2.42e6 | inactive
Rh5 (GeneID 34615) | DRSC03412 | 1.12e6 | 5.16e5 | 1.38e6 | 1.07e6 | inactive
